Results are given in words; binding and its absence hold for the method and conditions named. For some assays here: In cells and extracts the contact can be indirect. Some results given as binding are weak or reduced against the parent protein; the word gives no strength. For some assays here: Sequences can lack the tags named with a protein.

This passage reports binding results from paper PMC2778955.

For test [1], the target named is Myc epitope-tagged IKKγ-WT (human), Q9Y6K9. The test is described as follows: co-IP; co-transfected HEK293 cells (cell line not named for Figure 8C), 48 h; whole cell extracts in modified RIPA buffer; nondenaturing IP with anti-Myc Ab at 4°C; blot with anti-Flag or anti-V5 Ab. Conditions: remark: other sources report otherwise.
For test [2], the target named is T1, IRF3 (endogenous, MEFs) (mouse (endogenous in MEFs)), P70671.
T1 chain: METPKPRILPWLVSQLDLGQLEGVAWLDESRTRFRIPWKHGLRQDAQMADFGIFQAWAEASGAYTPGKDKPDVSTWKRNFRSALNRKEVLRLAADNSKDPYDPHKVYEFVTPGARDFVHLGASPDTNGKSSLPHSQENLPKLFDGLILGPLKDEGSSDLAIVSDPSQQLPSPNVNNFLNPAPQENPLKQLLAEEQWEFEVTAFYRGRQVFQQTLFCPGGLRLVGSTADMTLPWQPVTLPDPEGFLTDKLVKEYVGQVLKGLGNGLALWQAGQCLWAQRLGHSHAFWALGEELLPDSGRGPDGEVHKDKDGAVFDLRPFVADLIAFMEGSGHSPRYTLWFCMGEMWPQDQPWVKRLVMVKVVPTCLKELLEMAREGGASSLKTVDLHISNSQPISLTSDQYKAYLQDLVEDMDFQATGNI
The test can be described thus: native gel or EMSA. The conditions noted are these: remark: other sources report otherwise. A general note: Mobility shift assays separate free from complexed probe on a gel.

B1: Flag epitope-tagged IKKα, O15111 1-745 (enzyme)
chain: MERPPGLRPGAGGPWEMRERLGTGGFGNVCLYQHRELDLKIAIKSCRLELSTKNRERWCHEIQIMKKLNHANVVKACDVPEELNILIHDVPLLAMEYCSGGDLRKLLNKPENCCGLKESQILSLLSDIGSGIRYLHENKIIHRDLKPENIVLQDVGGKIIHKIIDLGYAKDVDQGSLCTSFVGTLQYLAPELFENKPYTATVDYWSFGTMVFECIAGYRPFLHHLQPFTWHEKIKKKDPKCIFACEEMSGEVRFSSHLPQPNSLCSLVVEPMENWLQLMLNWDPQQRGGPVDLTLKQPRCFVLMDHILNLKIVHILNMTSAKIISFLLPPDESLHSLQSRIERETGINTGSQELLSETGISLDPRKPASQCVLDGVRGCDSYMVYLFDKSKTVYEGPFASRSLSDCVNYIVQDSKIQLPIIQLRKVWAEAVHYVSGLKEDYSRLFQGQRAAMLSLLRYNANLTKMKNTLISASQQLKAKLEFFHKSIQLDLERYSEQMTYGISSEKMLKAWKEMEEKAIHYAEVGVIGYLEDQIMSLHAEIMELQKSPYGRRQGDLMESLEQRAIDLYKQLKHRPSDHSYSDSTEMVKIIVHTVQSQDRVLKELFGHLSKLLGCKQKIIDLLPKVEVALSNIKEADNTVMFMQGKRQKEIWHLLKIACTQSSARSLVGSSLEGAVTPQTSAWLPPTSAEHDHSLSCVVTPQDGETSAQMIEENLNCLGHLSTIIHEANEEQGNSMMNLDWSWLTE
Turning to B1, in test [1], the binding result is recorded as “binds”.

B2: IRF3 (endogenous, MEFs), P70671 1-419 (protein)
chain: METPKPRILPWLVSQLDLGQLEGVAWLDESRTRFRIPWKHGLRQDAQMADFGIFQAWAEASGAYTPGKDKPDVSTWKRNFRSALNRKEVLRLAADNSKDPYDPHKVYEFVTPGARDFVHLGASPDTNGKSSLPHSQENLPKLFDGLILGPLKDEGSSDLAIVSDPSQQLPSPNVNNFLNPAPQENPLKQLLAEEQWEFEVTAFYRGRQVFQQTLFCPGGLRLVGSTADMTLPWQPVTLPDPEGFLTDKLVKEYVGQVLKGLGNGLALWQAGQCLWAQRLGHSHAFWALGEELLPDSGRGPDGEVHKDKDGAVFDLRPFVADLIAFMEGSGHSPRYTLWFCMGEMWPQDQPWVKRLVMVKVVPTCLKELLEMAREGGASSLKTVDLHISNSQPISLTSDQYKAYLQDLVEDMDFQATGNI
B2: the binding entry in test [2] is on record as “binds”.
